The target of the test is cCFP-UPL4 (Arabidopsis thaliana) (UniProt Q9LYZ7). The experiment in a line: split reporter; multicolor BiFC (mcBiFC) in Arabidopsis mesophyll protoplasts; nVenus and cCFP fusions transiently co-expressed, overnight; confocal microscopy; CBP20-RFP as nuclear marker.

Amino acid sequences for entries named in this document (tags omitted).
UniProt Q9LYZ7: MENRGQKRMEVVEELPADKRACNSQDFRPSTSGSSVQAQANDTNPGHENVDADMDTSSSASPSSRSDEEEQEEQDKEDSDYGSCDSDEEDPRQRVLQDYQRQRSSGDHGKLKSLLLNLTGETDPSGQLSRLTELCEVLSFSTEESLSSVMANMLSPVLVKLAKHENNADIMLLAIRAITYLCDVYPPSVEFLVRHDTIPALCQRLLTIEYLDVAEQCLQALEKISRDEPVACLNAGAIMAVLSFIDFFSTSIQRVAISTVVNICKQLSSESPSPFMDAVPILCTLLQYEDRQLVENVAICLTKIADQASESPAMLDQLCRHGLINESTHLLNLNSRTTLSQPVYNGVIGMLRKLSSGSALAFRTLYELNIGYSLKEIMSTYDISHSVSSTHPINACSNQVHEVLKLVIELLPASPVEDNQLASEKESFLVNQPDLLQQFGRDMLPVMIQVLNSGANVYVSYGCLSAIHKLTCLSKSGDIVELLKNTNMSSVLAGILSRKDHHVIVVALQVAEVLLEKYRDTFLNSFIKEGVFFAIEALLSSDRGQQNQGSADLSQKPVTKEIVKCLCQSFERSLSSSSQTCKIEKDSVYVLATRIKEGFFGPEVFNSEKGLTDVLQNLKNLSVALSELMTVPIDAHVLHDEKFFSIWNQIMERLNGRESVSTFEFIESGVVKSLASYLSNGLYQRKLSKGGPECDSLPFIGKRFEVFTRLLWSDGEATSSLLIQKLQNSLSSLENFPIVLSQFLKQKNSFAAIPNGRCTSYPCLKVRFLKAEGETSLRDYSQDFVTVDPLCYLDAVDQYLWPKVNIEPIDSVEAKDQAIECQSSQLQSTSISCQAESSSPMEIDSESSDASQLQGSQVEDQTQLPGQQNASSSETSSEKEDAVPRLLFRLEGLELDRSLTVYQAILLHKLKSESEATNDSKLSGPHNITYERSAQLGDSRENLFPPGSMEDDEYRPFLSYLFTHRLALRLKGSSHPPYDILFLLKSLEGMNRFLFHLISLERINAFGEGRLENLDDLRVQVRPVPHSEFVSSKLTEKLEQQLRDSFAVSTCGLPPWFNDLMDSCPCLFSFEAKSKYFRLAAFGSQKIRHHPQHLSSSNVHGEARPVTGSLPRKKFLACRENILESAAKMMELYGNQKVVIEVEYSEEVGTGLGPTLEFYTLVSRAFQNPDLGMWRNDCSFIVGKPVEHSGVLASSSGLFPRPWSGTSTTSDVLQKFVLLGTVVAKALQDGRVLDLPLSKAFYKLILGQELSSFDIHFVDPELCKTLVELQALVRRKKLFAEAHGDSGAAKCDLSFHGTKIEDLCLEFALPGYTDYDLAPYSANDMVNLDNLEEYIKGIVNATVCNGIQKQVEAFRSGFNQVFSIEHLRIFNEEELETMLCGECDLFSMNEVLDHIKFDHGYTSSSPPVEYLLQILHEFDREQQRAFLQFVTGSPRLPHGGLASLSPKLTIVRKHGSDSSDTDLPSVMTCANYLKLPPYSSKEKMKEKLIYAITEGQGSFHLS

No constants are given. Whether binding was seen depends on the method and setting. Binding seen in cells or lysates may run through a third protein. Some results given as binding are weak or reduced against the parent protein; the word gives no strength.

B1: MAPKKK17-nVenus (protein, UniProt O80888 1-372)
chain: MEWTRGRILGRGSTATVYAAAGHNSDEILAVKSSEVHRSEFLQREAKILSSLSSPYVIGYRGSETKRESNGVVMYNLLMEYAPYGTLTDAAAKDGGRVDETRVVKYTRDILKGLEYIHSKGIVHCDVKGSNVVISEKGEAKIADFGCAKRVDPVFESPVMGTPAFMAPEVARGEKQGKESDIWAVGCTMIEMVTGSPPWTKADSREDPVSVLYRVGYSSETPELPCLLAEEAKDFLEKCLKREANERWTATQLLNHPFLTTKPDIEPVLVPGLISNSPTSVTDQTFWRSVEEEEEEETEEIQKDSRDLDRLSLWGCYSERIGRLKCVGGLDGTRCDMEGGDWIMVRARCEGTMISGSQKELIISENVLVGEL
Consider B1, for which the binding entry is given as “binds”.

B2: MAPKKK18-nVenus (protein, UniProt Q9ZVP5 1-339)
chain: MNWTRGKTLGRGSTATVSAATCHESGETLAVKSAEFHRSEFLQREAKILSSLNSPYVIGYRGCEITREPFHNNGEATTYSLLMEYAPYGTLTDVATKNGGFIDEARVVKYTRQILLGLEYIHNSKGIAHCDIKGSNVLVGENGEAKIADFGCAKWVEPEITEPVRGTPAFMAPEAARGERQGKESDIWAVGCTVIEMVTGSQPWIGADFTDPVSVLYRVGYLGELPELPCSLTEQAKDFLGKCLKKEATERWTASQLLNHPFLVNKEPELVTGLVTNSPTSVTDQMFWRSVEEEVSEDRSSWWECHEDERIGVLSWIGHVVVESTWDLDGEDWITVRRN
As for B2, the binding result is “binds”.

The values above are taken from article PMC11020294.
